Values quoted from earlier work as cited in patent US8093286B2, “Methods for treatment with bucindolol based on genetic targeting” (The Regents of the University of Colorado, a body corporate, priority 2004, dated 2012).
Some results were stated once for a whole list of compounds, not compound by compound. Some compounds share one range, which may span the group rather than tell each member.

Tested on: heart failure patients
Settings: CIBIS-II (bisoprolol), MERIT-HF (metoprolol), COPERNICUS (carvedilol); cited from earlier work

COc1ccccc1OCCNCC(O)COc1cccc2[nH]c3ccccc3c12 (stereo not shown) [carvedilol]
reductions in mortality vs placebo: 34-35%
